Measurements reported in PubChem BioAssay AID1347426 (Functional Genomics Laboratory (NCATS/FGL), 2020).
The whole screen tested about 31,000 sequences, of which about 1,400 (4.5%) were called active.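 The calls were made as follows: active = median seed-adjusted z-score above 1 or below -1; inactive = the rest.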 Some of the results follow.

Test: Novel Modifiers of Survival Motor Neuron (SMN) Protein: Gene Identification via Genome-wide siRNA Screen;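 also: luminescence tracks full-length SMN protein made from the SMN2 reporter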
Conditions: HEK293T SMN2-luciferase reporter, siRNA knockdown, 72 h; actives lie on both sides
Summary of the method: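 siRNA screen, 10418 genes ×3 siRNAs; 1 pmol/well, lipid reverse transfection into HEK293T SMN2-luc reporter line. 72 h, 37 °C, 5% CO2; ONE-Glo readout. Data: neg-ctrl normalized, log10, MAD; hit = MAD >1.0 or < -1.0.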
With CGAUCGUGGUGUGCUAAAATT against NMT1 the median seed-adjusted z-score was inactive: 0.18.
For CCAGAGAUCUUGAACACCATT against TRIB2, the median seed-adjusted z-score was inactive: 0.
In the case of CCGUGAAAAAGUAUCAUGATT against PDGFD, the median seed-adjusted z-score is reported as inactive: 0.366.
For GGAUGAGUUUAGAAACUUUTT against PRKCH, the median seed-adjusted z-score was inactive: 0.761.
For GAAUAGUGAUAGGAGUUUUTT against TAAR2, the median seed-adjusted z-score was inactive: 0.137.
In the case of GGACAGCAUGCGAACCUAUTT against TJP3, the median seed-adjusted z-score is reported as inactive: -0.183.
In the case of CAGUAUCCACAGAUCCUGATT against COPB2, the median seed-adjusted z-score is reported as inactive: -0.61.
In the case of UGGUGUUUUGGGUUUCAAATT against ERAS, the median seed-adjusted z-score is reported as inactive: 0.289.
For GAAGGGUUAUCGUCGGGAATT against SLC6A6, the median seed-adjusted z-score was inactive: 0.0448.
With CCUGCGUCGUGGAGAACAATT against FGFR3 the median seed-adjusted z-score was inactive: -0.133.
For GGAAGCUAUUGGACAUGCATT against PSMA4, the median seed-adjusted z-score was inactive: 0.
With CCCUCACCGUGCAUGAGAATT against ZNF74 the median seed-adjusted z-score was active: 1.17.
With GUUUGACCGUCUGAAGAAATT against 6-Sep the median seed-adjusted z-score was inactive: -0.732.
In the case of CAGUCGGAGCUAAUGGUGATT against AGER, the median seed-adjusted z-score is reported as inactive: 0.506.
With AGUUCUCGGAGGUGCUUAATT against CKB the median seed-adjusted z-score was inactive: -0.236.
For GCAGAAUACUUCUAUGAAUTT against WIF1, the median seed-adjusted z-score was inactive: -0.521.
With GCAUUAACCUGGGAGCGAUTT against SLC15A4 the median seed-adjusted z-score was inactive: -0.29.
With GGCCUCCUAUUCUAAGAAATT against CETP the median seed-adjusted z-score was inactive: 0.
For UCUCAUACCUUAUUAAACATT against ZNF100, the median seed-adjusted z-score was inactive: -0.209.
With CCAUGAGAAUGACACGAUATT against VPS26B the median seed-adjusted z-score was inactive: -0.038.
In the case of GGAUGACAGGUACCAAUGUTT against GLYCTK, the median seed-adjusted z-score is reported as inactive: 0.0328.
In the case of CACCGGAGGUUUAUCACAATT against AMDHD2, the median seed-adjusted z-score is reported as inactive: -0.0707.
With CGACCAUCCUAACAUCAUUTT against EPHB1 the median seed-adjusted z-score was inactive: -0.0232.
In the case of GGAGAGUUGAUGAACCAGATT against GALK2, the median seed-adjusted z-score is reported as inactive: 0.
In the case of GAGUGGAUGUUCAACCGGATT against PCK1, the median seed-adjusted z-score is reported as inactive: -0.401.
With GAAAGAUCCCUAUGGAAAATT against CAMK2G the median seed-adjusted z-score was inactive: -0.107.
For GCAGAUUACUGUGCAAGUATT against SDR16C5, the median seed-adjusted z-score was inactive: -0.0558.
With CUGCCUUACUAACUCCUUATT against ALPL the median seed-adjusted z-score was inactive: -0.229.
For GGUCUUAGAUGGUACGCGUTT against ADAMTSL1, the median seed-adjusted z-score was inactive: -0.107.
With CACCAACGGCUAUGAGGAATT against AEBP1 the median seed-adjusted z-score was inactive: -0.0536.
In the case of CGUCUAUUCAGGAAACCUATT against PGLYRP2, the median seed-adjusted z-score is reported as inactive: -0.697.
For GGUCAUUGUGAAAAGUAGATT against GCLM, the median seed-adjusted z-score was inactive: 0.0509.
In the case of UCGUCUUUGUGCUCAAAGATT against DNAJB5, the median seed-adjusted z-score is reported as inactive: -0.444.
With GCAAUCUAGUCAACGGAGATT against EEA1 the median seed-adjusted z-score was inactive: 0.0278.
With GGAUAGAAAGUCCAACGGATT against ATMIN the median seed-adjusted z-score was inactive: -0.55.
For CGCAGAACCUGAGAGUCUATT against DMRT3, the median seed-adjusted z-score was inactive: 0.
In the case of CGUCUAGAGUCGUUGAGAATT against NDC80, the median seed-adjusted z-score is reported as inactive: 0.0855.
With GCUGAUUCUUCGAGGCCGATT against SIGIRR the median seed-adjusted z-score was inactive: 0.0269.
For CGAAUUUAGAUGCUGGUCATT against NRL, the median seed-adjusted z-score was inactive: -0.352.
For GGAUGCAGAACGACGUGAATT against SLC25A10, the median seed-adjusted z-score was inactive: -0.571.
In the case of GGUCUUCAAUCAAAAUCCATT against ZNF610, the median seed-adjusted z-score is reported as inactive: 0.432.
With AGAAUGCGCUGAACGGUAUTT against RBPMS2 the median seed-adjusted z-score was inactive: -0.485.
In the case of AGAAACAUCCGGAACCCUUTT against SIRT2, the median seed-adjusted z-score is reported as inactive: 0.727.
For CCAGUUCCUAUAUAAGACATT against ZNF563, the median seed-adjusted z-score was inactive: 0.00283.
For GGAGGAUGGACUUAUCAAATT against CRMP1, the median seed-adjusted z-score was inactive: -0.354.
With GCAACUACAUCAAGGUGCATT against GNAT1 the median seed-adjusted z-score was inactive: -0.188.
For GAACAACUACCUUCGGGAATT against SPINT1, the median seed-adjusted z-score was inactive: 0.0172.
In the case of AAAACUUACGAACAACAAATT against TBR1, the median seed-adjusted z-score is reported as inactive: -0.388.
In the case of CCUCUUGCCUUGUAUACAATT against RAET1G, the median seed-adjusted z-score is reported as inactive: -0.0655.
With CCAACUCAAACAACGAUAATT against RAVER2 the median seed-adjusted z-score was inactive: -0.258.
With CACCUACAUUAAUGCUAAUTT against PTPRR the median seed-adjusted z-score was inactive: 0.502.
With GCAGUUAUGCUUCAAGUCATT against NFRKB the median seed-adjusted z-score was inactive: 0.787.
With GGGCCUAACAUCAUCCUCATT against CRTC2 the median seed-adjusted z-score was inactive: -0.691.
In the case of CCAUCGGCCGGAAAAGAAATT against AKR1C2, the median seed-adjusted z-score is reported as inactive: -0.109.
